Results deposited as PubChem BioAssay AID1259308 (NCATS, 2017).
The whole screen tested about 59,000 reagents; this is a part drawn at random. About 1,510 of them (2.6%) were called active. 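Calls use total luciferase alone and ignore viability, so some active siRNAs may act by altering cell number.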 A number with no mark means an inactive call. No sequences are given here.

Assay: 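Candidate targets for better recombinant protein yield in mammalian cells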 (primary screen)
Cells: human HEK293 embryonic kidney cells stably expressing firefly luciferase (HEK-CMV-Luc2-Hygro)
Knock-down reagent: single siRNA against human genes, 0.8 pmol siRNA per well
Timing: 72 h
Read-out: 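Luciferase light (ONE-Glo) measured on one replicate plate set and viability (CellTiter-Glo) on the other, scaled to a negative control siRNA, with robust z-scores and luciferase per cell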
Direction: total luciferase, z-score and total luciferase, % of control: higher = more reporter protein produced; luciferase per cell, z-score: higher = more reporter output per viable cell; viable cells, % of control: higher = more viable cells
Hit rule: 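Active when the median/MAD z-score for overall luciferase is greater than 3; a gene was taken forward for validation with new siRNAs if at least two of its three siRNAs passed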
Meaning of the calls: active = raised luciferase; inactive = no rise

| gene knocked down | PubChem SID | total luciferase, z-score | total luciferase, % of control | luciferase per cell, z-score | viable cells, % of control |
| --- | --- | --- | --- | --- | --- |
| PKMYT1 (protein kinase, membrane associated tyrosine/threonine 1) | SID160724214 | -0.526 | 71.4 | -0.613 | 93.8 |
| PKMYT1 (protein kinase, membrane associated tyrosine/threonine 1) | SID160724215 | 0.142 | 84.7 | -0.61 | 111 |
| PKMYT1 (protein kinase, membrane associated tyrosine/threonine 1) | SID160732132 | 5.01 (active) | 182 | 3.03 | 91.4 |
| LZTS1 (leucine zipper tumor suppressor 1) | SID160730131 | 1.81 | 118 | 1.27 | 94.3 |
| LZTS1 (leucine zipper tumor suppressor 1) | SID160730132 | -0.686 | 68.2 | -0.689 | 91.4 |
| LZTS1 (leucine zipper tumor suppressor 1) | SID160730133 | -0.49 | 72.1 | -0.326 | 87.8 |
| TMEM267 (transmembrane protein 267) | SID160747749 | -0.0253 | 81.4 | -0.233 | 96.7 |
| TMEM267 (transmembrane protein 267) | SID160747750 | 2.23 | 126 | 1.14 | 105 |
| TMEM267 (transmembrane protein 267) | SID160747751 | -0.0533 | 80.8 | -0.241 | 96.2 |
| COL6A3 (collagen type VI alpha 3 chain) | SID160746122 | 0.596 | 93.7 | 1.05 | 79.5 |
| COL6A3 (collagen type VI alpha 3 chain) | SID160746133 | -0.4 | 73.9 | -0.925 | 105 |
| COL6A3 (collagen type VI alpha 3 chain) | SID160746143 | 0.313 | 88.1 | 1.27 | 70.5 |
| FARP2 (FERM, ARH/RhoGEF and pleckstrin domain protein 2) | SID160723264 | -0.665 | 68.7 | -0.794 | 94.6 |
| FARP2 (FERM, ARH/RhoGEF and pleckstrin domain protein 2) | SID160723265 | -0.343 | 75.1 | -0.0258 | 84.4 |
| FARP2 (FERM, ARH/RhoGEF and pleckstrin domain protein 2) | SID160723266 | -0.2 | 77.9 | -0.567 | 101 |
| CBX3P6 (CBX3 pseudogene 6) | SID160733782 | 2.19 | 126 | 0.908 | 110 |
| CBX3P6 (CBX3 pseudogene 6) | SID160768695 | 0.559 | 93 | 0.111 | 101 |
| CBX3P6 (CBX3 pseudogene 6) | SID160768696 | -0.559 | 70.8 | -0.935 | 101 |
| ZSCAN21 (zinc finger and SCAN domain containing 21) | SID160719069 | -0.841 | 65.2 | -0.7 | 87.5 |
| ZSCAN21 (zinc finger and SCAN domain containing 21) | SID160719070 | -0.3 | 75.9 | -0.381 | 93.8 |
| ZSCAN21 (zinc finger and SCAN domain containing 21) | SID160719071 | 0.747 | 96.7 | 0.442 | 96.2 |
| CDC25B (cell division cycle 25B) | SID160740158 | 0.161 | 85.1 | 0.313 | 87.6 |
| CDC25B (cell division cycle 25B) | SID160740167 | -1.53 | 51.5 | -1.55 | 86.5 |
| CDC25B (cell division cycle 25B) | SID160740178 | 0.127 | 84.4 | 0.236 | 88.6 |

Records listed so far whose gene name begins with T or t (3):
| gene knocked down | PubChem SID | total luciferase, z-score | total luciferase, % of control | luciferase per cell, z-score | viable cells, % of control |
| --- | --- | --- | --- | --- | --- |
| TMEM267 (transmembrane protein 267) | SID160747749 | -0.0253 | 81.4 | -0.233 | 96.7 |
| TMEM267 (transmembrane protein 267) | SID160747750 | 2.23 | 126 | 1.14 | 105 |
| TMEM267 (transmembrane protein 267) | SID160747751 | -0.0533 | 80.8 | -0.241 | 96.2 |
